This is one part of the list.
These targets were tested with c1cn2cc(-c3ccc4cn[nH]c4c3)nc(Nc3ccc(N4CCOCC4)cc3)c2n1 [entospletinib] (assay: log2 fold change, soluble protein after heating vs DMSO (PISA); higher = thermal stabilisation; K562 cells, 10 uM, 30 min; active = over 0.2 and 3.5 SD of the protein, either way, in both replicates (recomputed)).
Outline: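 K562 cells at 2×10^6 cells/mL were given 10 μM compound for 30 min. Aliquots then went through 3 min of heating across 48°C-58°C, were pooled, and were extracted in PBS with 0.5% NP-40 at 4°C, and the supernatant after 21,000xg for 90 min was quantified by TMTpro 16plex LC-MS/MS with channel sums equalised. Thermal stability relative to control samples, from duplicates, is given as log2 fold change.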

Sequences of proteins named here, by UniProt entry; tags and fusion partners are left off. A change or cut given only in a name is not applied to a line headed by its entry.
UniProt Q9Y678: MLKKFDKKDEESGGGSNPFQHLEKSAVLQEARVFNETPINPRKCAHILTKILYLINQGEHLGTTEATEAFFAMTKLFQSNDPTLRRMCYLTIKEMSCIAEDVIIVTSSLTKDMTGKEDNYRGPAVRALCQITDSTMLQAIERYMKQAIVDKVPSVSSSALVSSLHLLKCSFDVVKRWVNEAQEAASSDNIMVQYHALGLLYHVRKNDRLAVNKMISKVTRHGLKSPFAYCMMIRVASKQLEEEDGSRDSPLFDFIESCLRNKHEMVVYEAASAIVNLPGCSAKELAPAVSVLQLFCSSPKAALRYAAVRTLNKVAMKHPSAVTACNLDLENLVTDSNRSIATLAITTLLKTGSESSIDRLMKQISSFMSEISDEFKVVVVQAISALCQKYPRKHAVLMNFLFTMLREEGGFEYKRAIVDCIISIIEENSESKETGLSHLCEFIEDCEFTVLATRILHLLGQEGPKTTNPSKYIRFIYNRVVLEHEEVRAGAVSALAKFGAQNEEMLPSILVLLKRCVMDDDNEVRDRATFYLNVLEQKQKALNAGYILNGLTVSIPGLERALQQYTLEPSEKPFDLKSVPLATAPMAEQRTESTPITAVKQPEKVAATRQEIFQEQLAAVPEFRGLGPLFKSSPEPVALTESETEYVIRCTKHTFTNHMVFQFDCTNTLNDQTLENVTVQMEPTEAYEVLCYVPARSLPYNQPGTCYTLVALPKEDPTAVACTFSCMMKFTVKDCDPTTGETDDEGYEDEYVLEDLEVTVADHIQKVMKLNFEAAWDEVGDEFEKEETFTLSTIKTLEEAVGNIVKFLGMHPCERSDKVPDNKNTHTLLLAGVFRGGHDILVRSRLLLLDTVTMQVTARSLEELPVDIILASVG
UniProt Q86T23: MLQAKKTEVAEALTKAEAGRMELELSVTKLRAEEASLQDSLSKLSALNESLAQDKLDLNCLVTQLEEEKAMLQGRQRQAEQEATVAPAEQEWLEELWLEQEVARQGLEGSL
UniProt O14579: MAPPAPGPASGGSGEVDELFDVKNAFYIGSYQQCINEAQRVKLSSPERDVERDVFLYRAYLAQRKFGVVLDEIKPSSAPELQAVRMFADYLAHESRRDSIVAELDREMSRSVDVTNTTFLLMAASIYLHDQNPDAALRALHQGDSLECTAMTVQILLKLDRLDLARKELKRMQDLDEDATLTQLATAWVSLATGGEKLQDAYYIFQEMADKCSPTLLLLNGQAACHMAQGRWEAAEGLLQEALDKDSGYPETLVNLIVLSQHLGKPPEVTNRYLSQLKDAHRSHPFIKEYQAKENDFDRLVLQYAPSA
UniProt P31327: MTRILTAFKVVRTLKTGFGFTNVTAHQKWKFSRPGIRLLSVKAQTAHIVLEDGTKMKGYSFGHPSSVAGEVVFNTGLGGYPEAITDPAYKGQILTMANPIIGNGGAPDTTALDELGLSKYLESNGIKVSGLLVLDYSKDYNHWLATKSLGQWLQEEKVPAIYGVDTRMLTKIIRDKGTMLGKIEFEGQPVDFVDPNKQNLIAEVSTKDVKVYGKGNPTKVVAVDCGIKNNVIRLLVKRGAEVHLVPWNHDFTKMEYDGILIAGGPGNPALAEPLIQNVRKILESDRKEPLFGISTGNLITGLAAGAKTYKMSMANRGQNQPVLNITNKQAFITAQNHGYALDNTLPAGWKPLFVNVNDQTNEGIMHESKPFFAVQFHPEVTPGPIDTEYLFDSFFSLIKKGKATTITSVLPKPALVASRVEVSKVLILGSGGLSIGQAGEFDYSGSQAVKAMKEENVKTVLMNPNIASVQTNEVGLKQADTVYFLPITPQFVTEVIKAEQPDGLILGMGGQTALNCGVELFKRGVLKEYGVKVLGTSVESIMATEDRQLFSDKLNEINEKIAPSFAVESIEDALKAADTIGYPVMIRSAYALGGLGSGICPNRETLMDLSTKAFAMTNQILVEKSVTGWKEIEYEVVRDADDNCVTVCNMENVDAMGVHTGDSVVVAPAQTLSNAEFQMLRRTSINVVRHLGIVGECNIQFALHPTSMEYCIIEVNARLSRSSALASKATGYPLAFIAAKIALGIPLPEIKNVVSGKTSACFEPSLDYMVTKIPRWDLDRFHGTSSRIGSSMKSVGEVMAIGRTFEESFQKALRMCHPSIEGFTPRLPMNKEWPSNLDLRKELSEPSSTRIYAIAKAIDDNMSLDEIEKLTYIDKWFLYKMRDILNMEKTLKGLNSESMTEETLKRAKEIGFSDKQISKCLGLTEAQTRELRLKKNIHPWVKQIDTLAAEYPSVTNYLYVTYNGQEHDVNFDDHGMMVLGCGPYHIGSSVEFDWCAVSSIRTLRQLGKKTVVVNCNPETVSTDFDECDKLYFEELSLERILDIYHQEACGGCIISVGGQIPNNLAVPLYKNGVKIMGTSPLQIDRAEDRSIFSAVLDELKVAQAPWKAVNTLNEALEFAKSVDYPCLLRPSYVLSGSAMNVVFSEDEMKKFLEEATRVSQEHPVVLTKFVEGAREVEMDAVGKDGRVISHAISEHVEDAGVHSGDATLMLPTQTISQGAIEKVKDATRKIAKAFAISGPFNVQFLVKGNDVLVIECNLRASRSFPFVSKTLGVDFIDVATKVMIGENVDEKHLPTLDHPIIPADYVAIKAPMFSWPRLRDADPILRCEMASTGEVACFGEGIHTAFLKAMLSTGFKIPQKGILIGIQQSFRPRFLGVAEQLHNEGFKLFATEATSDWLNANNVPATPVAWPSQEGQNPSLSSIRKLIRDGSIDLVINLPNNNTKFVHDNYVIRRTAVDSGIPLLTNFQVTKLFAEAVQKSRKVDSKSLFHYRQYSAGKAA
UniProt Q9NZJ6: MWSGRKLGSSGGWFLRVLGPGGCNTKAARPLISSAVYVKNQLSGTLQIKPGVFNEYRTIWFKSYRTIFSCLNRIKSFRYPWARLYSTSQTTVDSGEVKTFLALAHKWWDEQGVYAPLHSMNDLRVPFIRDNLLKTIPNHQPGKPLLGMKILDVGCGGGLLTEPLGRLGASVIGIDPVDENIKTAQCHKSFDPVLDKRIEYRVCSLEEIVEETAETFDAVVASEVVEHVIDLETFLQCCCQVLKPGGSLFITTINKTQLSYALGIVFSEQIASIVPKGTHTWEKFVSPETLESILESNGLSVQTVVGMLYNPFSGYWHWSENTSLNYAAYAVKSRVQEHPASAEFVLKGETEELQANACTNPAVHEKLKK

log2 fold change, inactive:
COPG1 (UniProt Q9Y678) -0.01
CROCCP2 (UniProt Q86T23) 0.007
COPE (UniProt O14579) 0.014
CPS1 isoform 3 (UniProt P31327) 0.115
COQ3 (UniProt Q9NZJ6) -0.007

— the supplement of paper PMC10849652
